Experimental data taken from the supplement of paper PMC12823440, “Inhibitors supercharge kinase turnover through native proteolytic circuits” (Nature, 2025).
Structures can show the parent of a compound that is named as a salt. The list shows a part of the results. Hit calls seldom repeat between salt and free forms of one compound.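 Kinases, fused to nanoluciferase, were expressed in K562 cells; luminescence was measured every 4 h from 2 to 18 h as percent of control (DMSO = 100%, positive control = 0%). A time point is decreased if signal falls significantly (2 sigma). Hits were called by the authors by a rule that is not shown; the count of time points alone does not decide it.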

Protein sequences, listed by entry. Tags and fused reporters are not part of them. Lines headed by an entry give the natural chain unless they say otherwise; changes in a name come on top.
UniProt P29317, whole entry: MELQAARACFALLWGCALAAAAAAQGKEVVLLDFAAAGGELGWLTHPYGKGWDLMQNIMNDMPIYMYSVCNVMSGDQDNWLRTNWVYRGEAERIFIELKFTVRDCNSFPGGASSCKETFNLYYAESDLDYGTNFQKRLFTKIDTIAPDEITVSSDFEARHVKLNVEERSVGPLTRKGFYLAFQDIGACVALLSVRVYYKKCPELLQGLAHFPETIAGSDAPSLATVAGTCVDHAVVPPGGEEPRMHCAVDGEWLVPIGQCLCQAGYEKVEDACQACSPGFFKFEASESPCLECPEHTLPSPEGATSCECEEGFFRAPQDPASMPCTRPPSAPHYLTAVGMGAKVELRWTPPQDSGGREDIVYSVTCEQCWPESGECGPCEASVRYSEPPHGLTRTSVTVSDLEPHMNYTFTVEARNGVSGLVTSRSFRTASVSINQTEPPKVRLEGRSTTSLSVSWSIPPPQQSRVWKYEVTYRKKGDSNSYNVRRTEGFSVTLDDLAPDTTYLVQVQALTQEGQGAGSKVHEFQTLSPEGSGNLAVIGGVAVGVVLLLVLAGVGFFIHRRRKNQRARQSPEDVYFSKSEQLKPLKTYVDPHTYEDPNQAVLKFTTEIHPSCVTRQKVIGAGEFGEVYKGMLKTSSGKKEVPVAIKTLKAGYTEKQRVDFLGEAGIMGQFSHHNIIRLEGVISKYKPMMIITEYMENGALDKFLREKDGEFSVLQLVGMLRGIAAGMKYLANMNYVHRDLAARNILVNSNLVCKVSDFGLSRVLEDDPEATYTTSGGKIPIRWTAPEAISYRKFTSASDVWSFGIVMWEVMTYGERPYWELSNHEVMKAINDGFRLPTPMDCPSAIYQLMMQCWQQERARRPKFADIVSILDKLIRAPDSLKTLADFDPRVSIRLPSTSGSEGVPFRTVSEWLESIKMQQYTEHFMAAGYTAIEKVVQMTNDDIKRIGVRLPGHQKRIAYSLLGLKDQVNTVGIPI
UniProt O75460: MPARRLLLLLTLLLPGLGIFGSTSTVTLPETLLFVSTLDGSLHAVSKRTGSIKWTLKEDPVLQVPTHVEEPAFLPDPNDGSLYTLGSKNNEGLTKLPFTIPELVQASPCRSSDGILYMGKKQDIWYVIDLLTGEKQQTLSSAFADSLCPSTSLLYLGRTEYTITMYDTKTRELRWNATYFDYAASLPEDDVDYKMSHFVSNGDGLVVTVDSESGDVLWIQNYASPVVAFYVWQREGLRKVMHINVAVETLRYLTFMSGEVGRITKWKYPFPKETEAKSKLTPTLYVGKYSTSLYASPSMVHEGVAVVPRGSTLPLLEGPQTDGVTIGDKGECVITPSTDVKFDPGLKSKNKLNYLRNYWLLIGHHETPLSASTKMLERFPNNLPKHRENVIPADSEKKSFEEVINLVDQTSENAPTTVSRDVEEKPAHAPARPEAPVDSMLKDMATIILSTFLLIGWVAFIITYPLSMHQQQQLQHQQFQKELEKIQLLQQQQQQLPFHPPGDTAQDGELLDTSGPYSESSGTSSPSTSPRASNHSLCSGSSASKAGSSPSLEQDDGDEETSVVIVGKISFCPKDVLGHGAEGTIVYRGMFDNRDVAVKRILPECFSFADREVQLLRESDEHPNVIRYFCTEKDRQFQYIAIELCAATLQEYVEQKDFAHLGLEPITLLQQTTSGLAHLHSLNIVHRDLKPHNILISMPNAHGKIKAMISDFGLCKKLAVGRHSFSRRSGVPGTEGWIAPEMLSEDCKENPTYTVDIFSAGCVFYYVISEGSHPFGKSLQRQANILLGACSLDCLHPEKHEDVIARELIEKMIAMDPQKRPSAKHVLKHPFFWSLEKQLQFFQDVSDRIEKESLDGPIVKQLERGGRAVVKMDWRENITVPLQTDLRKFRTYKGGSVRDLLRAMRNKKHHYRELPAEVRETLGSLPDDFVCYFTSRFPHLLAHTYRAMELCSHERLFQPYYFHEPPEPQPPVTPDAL
UniProt P21802, whole entry, looked up: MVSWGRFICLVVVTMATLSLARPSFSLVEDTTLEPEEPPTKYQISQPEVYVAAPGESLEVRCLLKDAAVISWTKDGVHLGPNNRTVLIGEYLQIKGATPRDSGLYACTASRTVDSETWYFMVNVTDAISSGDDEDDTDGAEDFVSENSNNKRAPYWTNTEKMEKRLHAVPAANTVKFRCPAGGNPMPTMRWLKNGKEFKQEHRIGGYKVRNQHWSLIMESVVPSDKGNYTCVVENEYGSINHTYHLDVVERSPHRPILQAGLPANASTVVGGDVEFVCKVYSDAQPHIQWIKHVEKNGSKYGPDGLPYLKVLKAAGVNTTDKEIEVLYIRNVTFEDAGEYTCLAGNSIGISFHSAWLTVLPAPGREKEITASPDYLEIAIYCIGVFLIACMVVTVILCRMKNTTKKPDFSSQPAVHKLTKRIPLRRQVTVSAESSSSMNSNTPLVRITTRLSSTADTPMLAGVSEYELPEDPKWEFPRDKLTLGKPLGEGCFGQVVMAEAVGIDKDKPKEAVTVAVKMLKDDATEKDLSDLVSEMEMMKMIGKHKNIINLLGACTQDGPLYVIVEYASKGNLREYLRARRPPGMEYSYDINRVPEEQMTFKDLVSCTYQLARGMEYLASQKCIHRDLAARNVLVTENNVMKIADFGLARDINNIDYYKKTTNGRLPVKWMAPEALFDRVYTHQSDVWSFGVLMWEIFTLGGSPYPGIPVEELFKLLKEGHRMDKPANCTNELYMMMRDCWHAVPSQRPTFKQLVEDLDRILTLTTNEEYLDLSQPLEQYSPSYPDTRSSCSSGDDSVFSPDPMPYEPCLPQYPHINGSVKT
UniProt P22607, whole entry, looked up: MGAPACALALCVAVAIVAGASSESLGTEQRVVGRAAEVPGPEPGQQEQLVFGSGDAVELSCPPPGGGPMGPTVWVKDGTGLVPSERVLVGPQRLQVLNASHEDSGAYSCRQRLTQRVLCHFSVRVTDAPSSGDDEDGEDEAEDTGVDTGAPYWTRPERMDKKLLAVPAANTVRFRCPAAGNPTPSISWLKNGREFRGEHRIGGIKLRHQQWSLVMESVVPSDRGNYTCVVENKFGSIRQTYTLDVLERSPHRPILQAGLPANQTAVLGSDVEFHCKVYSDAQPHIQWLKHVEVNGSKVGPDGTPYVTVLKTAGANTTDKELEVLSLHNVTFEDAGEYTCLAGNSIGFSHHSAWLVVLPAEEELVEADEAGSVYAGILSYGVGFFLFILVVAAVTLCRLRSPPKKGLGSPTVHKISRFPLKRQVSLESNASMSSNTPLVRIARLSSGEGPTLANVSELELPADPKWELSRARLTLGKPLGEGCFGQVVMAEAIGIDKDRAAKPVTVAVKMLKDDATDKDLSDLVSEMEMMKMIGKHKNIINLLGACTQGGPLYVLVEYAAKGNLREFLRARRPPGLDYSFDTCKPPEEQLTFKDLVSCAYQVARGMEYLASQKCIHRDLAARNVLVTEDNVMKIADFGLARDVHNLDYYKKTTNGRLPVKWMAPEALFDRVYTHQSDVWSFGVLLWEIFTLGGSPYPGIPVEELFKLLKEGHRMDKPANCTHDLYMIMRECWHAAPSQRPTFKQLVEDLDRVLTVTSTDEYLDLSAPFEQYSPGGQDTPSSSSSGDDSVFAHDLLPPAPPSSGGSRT
UniProt P36888, whole entry: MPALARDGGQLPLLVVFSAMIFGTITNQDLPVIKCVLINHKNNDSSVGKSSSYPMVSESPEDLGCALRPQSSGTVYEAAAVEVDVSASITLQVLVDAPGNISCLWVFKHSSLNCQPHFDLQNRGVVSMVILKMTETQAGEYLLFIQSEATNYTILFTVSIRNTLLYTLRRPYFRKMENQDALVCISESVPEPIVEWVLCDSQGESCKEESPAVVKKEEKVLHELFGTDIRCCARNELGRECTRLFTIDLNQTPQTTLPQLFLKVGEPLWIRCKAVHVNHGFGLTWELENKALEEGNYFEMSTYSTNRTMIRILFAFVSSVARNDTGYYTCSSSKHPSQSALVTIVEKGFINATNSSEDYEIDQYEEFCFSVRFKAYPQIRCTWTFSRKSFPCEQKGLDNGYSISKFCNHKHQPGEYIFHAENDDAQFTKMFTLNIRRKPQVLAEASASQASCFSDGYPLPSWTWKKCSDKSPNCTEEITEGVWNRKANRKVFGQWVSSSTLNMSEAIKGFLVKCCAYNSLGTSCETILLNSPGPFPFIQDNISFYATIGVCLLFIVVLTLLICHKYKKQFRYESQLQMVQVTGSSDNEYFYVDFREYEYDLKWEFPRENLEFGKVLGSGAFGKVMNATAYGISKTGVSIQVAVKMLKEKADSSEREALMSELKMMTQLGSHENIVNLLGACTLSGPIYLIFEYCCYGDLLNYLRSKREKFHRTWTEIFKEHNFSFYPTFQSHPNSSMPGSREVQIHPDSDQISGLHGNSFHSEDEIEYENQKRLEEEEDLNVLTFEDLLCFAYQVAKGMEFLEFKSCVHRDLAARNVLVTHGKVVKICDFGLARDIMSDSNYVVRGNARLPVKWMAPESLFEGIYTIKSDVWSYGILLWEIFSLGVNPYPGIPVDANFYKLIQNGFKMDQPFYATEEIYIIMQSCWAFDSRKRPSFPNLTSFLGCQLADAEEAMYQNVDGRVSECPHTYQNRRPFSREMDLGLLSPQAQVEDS
UniProt P06241, whole entry, looked up: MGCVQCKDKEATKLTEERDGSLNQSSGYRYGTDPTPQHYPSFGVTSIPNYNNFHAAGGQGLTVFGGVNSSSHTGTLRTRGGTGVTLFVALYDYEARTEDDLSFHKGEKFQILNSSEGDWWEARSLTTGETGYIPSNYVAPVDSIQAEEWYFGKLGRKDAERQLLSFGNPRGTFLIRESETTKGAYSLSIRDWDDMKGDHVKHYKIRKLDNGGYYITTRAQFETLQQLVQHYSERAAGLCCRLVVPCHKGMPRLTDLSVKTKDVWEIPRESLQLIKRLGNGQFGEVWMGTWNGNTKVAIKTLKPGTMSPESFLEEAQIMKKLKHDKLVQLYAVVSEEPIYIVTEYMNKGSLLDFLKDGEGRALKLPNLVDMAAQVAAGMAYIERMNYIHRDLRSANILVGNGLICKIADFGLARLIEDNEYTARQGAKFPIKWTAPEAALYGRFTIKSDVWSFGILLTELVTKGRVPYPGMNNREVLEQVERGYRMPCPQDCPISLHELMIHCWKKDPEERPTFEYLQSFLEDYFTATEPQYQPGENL
UniProt P14616: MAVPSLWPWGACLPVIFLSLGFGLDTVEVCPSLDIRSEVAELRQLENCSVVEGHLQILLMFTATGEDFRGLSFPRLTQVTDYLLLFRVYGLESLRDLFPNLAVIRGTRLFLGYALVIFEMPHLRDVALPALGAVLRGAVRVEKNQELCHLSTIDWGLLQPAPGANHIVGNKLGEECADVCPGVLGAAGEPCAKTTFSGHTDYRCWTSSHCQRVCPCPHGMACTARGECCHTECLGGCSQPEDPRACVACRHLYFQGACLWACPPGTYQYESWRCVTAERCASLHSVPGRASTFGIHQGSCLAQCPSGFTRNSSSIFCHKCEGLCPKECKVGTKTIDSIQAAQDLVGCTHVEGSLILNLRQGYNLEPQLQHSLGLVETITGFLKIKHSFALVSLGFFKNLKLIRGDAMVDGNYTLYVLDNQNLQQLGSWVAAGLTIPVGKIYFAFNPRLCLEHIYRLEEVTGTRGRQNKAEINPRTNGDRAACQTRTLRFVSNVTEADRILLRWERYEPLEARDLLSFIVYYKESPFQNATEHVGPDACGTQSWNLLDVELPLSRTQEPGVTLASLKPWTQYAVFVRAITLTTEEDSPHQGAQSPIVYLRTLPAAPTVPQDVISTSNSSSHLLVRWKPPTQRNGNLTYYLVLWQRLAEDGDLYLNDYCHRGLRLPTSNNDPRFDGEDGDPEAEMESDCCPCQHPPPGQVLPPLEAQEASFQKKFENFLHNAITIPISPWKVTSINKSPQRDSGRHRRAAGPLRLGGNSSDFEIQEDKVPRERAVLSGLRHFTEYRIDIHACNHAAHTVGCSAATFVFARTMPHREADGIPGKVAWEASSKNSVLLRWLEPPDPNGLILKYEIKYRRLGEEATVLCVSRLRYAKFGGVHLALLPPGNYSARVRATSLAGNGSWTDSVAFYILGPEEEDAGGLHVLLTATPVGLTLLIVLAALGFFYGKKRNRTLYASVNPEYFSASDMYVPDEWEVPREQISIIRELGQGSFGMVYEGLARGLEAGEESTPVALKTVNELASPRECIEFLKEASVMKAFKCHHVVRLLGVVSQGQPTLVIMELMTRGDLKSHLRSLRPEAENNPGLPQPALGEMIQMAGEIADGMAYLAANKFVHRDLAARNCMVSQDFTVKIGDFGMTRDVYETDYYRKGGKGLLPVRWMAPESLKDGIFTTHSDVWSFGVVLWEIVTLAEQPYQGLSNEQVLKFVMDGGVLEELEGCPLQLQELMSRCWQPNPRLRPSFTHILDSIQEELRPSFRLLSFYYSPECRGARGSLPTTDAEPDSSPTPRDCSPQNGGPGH

Tests used:
Assay in all cases: kinase-Nluc reporter destabilization hit call (1 = scored as downregulated) (binary); higher = compound decreases kinase abundance
Conditions in all cases: K562; 2-18 h
EGFR = EGFR (UniProt P00533)
EGFR_G719S = EGFR_G719S (UniProt P00533)
EGFR_G719S_T790M = EGFR_G719S_T790M (UniProt P00533)
EGFR_L718V = EGFR_L718V (UniProt P00533)
EGFR_L858R = EGFR_L858R (UniProt P00533)
EGFR_L861Q = EGFR_L861Q (UniProt P00533)
EGFR_T790M = EGFR_T790M (UniProt P00533)
EPHA2 = EPHA2 (UniProt P29317)
ERBB3 = ERBB3 (UniProt P21860)
[1] = molecular target: ERBB4_R711C (clone: ERBB4_mut) (UniProt Q15303)
ERN1 = ERN1 (UniProt O75460)
FGFR1 = FGFR1 (UniProt P11362)
FGFR2 = FGFR2 (UniProt P21802)
FGFR3 = FGFR3 (UniProt P22607)
FGR = FGR (UniProt P09769)
FLT3 = FLT3 (UniProt P36888)
FYN = FYN (UniProt P06241)
GSK3A = GSK3A (UniProt P49840)
HER2 = HER2 (UniProt P04626)
INSRR = INSRR (UniProt P14616)

Measured: kinase-Nluc reporter destabilization hit call

C[C@]1(O)C[C@@](N)(c2ccc(-c3nc4n(c3-c3ccccc3)COc3ccncc3-4)cc2)C1 [TAS-117 (hydrochloride)] (10 µM)
inactive: EGFR 0 | EGFR_G719S 0 | EGFR_G719S_T790M 0 | EGFR_L718V 0 | EGFR_L858R 0 | EGFR_L861Q 0 | EGFR_T790M 0 | EPHA2 = 0 | ERBB3 = 0 | [1] 0 | ERN1 = 0 | FGFR1 = 0 | FGFR2 = 0 | FGFR3 = 0 | FGR 0 | FLT3 = 0 | FYN 0 | GSK3A 0 | HER2 = 0 | INSRR 0

CCC(=O)N1CC[C@H](Nc2ncnc3c2CN(c2cnc(OC)c(C(F)(F)F)c2)CC3)C1 [Leniolisib] (10 µM)
inactive: EGFR 0 | EGFR_G719S 0 | EGFR_G719S_T790M 0 | EGFR_L718V 0 | EGFR_L858R 0 | EGFR_L861Q 0 | EGFR_T790M 0 | EPHA2 = 0 | ERBB3 = 0 | [1] 0 | ERN1 = 0 | FGFR1 = 0 | FGFR2 = 0 | FGFR3 = 0 | FGR 0 | FLT3 = 0 | FYN 0 | GSK3A 0 | HER2 = 0 | INSRR 0

Cn1c(=O)c(Oc2ccc(F)cc2F)cc2cnc(NC(CCO)CCO)nc21 [Pamapimod] (10 µM)
inactive: EGFR 0 | EGFR_G719S 0 | EGFR_G719S_T790M 0 | EGFR_L718V 0 | EGFR_L858R 0 | EGFR_L861Q 0 | EGFR_T790M 0 | EPHA2 = 0 | ERBB3 = 0 | [1] 0 | ERN1 = 0 | FGFR1 = 0 | FGFR2 = 0 | FGFR3 = 0 | FGR 0 | FLT3 = 0 | FYN 0 | GSK3A 0 | HER2 = 0 | INSRR 0

Cn1cc(-c2ccc3ncc(Cc4ccc5ncccc5c4)n3n2)cn1 (10 µM)
inactive: EGFR 0 | EGFR_G719S 0 | EGFR_G719S_T790M 0 | EGFR_L718V 0 | EGFR_L858R 0 | EGFR_L861Q 0 | EGFR_T790M 0 | EPHA2 = 0 | ERBB3 = 0 | [1] 0 | ERN1 = 0 | FGFR1 = 0 | FGFR2 = 0 | FGFR3 = 0 | FGR 0 | FLT3 = 0 | FYN 0 | GSK3A 0 | HER2 = 0 | INSRR 0

CC(=O)Nc1nc(C)c(-c2cc3c(c(S(C)(=O)=O)c2)C(=O)N([C@@H](C)C2CC2)C3)s1 (2.5 µM)
inactive: EGFR 0 | EGFR_G719S 0 | EGFR_G719S_T790M 0 | EGFR_L718V 0 | EGFR_L858R 0 | EGFR_L861Q 0 | EGFR_T790M 0 | EPHA2 = 0 | ERBB3 = 0 | [1] 0 | ERN1 = 0 | FGFR1 = 0 | FGFR2 = 0 | FGFR3 = 0 | FGR 0 | FLT3 = 0 | FYN 0 | GSK3A 0 | HER2 = 0 | INSRR 0

COC(=O)[C@]1(C)CC[C@]2(C(=O)O[C@@H]3O[C@H](CO)[C@@H](O)[C@H](O)[C@H]3O)CC[C@]3(C)C(=CC[C@@H]4[C@@]5(C)C[C@H](O)[C@H](O[C@@H]6OC[C@@H](O[C@@H]7O[C@H](CO)[C@@H](O)[C@H](O)[C@H]7O)[C@H](O)[C@H]6O)[C@@](C)(CO)C5CC[C@]43C)[C@H]2C1 (stereo not given in full) [Esculentoside H] (10 µM)
inactive: EGFR 0 | EGFR_G719S 0 | EGFR_G719S_T790M 0 | EGFR_L718V 0 | EGFR_L858R 0 | EGFR_L861Q 0 | EGFR_T790M 0 | EPHA2 = 0 | ERBB3 = 0 | [1] 0 | ERN1 = 0 | FGFR1 = 0 | FGFR2 = 0 | FGFR3 = 0 | FGR 0 | FLT3 = 0 | FYN 0 | GSK3A 0 | HER2 = 0 | INSRR 0

C[C@H](CC[C@@H](O)C(C)(C)O)[C@H]1CC[C@@]2(C)[C@@H]3CC=C4[C@@H](CC[C@H](O)C4(C)C)[C@]3(C)[C@H](O)C[C@]12C [Mogrol] (10 µM)
inactive: EGFR 0 | EGFR_G719S 0 | EGFR_G719S_T790M 0 | EGFR_L718V 0 | EGFR_L858R 0 | EGFR_L861Q 0 | EGFR_T790M 0 | EPHA2 = 0 | ERBB3 = 0 | [1] 0 | ERN1 = 0 | FGFR1 = 0 | FGFR2 = 0 | FGFR3 = 0 | FGR 0 | FLT3 = 0 | FYN 0 | GSK3A 0 | HER2 = 0 | INSRR 0

COC[C@H]1Cn2cc(-c3nc(Nc4ccnn4C)ncc3C)nc2C(=O)N1Cc1ccc(F)c(F)c1 (10 µM)
inactive: EGFR 0 | EGFR_G719S 0 | EGFR_G719S_T790M 0 | EGFR_L718V 0 | EGFR_L858R 0 | EGFR_L861Q 0 | EGFR_T790M 0 | EPHA2 = 0 | ERBB3 = 0 | [1] 0 | ERN1 = 0 | FGFR1 = 0 | FGFR2 = 0 | FGFR3 = 0 | FGR 0 | FLT3 = 0 | FYN 0 | GSK3A 0 | HER2 = 0 | INSRR 0

COc1c(OCCCN2CCOCC2)ccc2c3n(c(=NC(=O)c4cnc(N)nc4)nc12)CCN3 [Copanlisib (dihydrochloride)] (10 µM)
inactive: EGFR 0 | EGFR_G719S 0 | EGFR_G719S_T790M 0 | EGFR_L718V 0 | EGFR_L858R 0 | EGFR_L861Q 0 | EGFR_T790M 0 | EPHA2 = 0 | ERBB3 = 0 | [1] 0 | ERN1 = 0 | FGFR1 = 0 | FGFR2 = 0 | FGFR3 = 0 | FGR 0 | FLT3 = 0 | FYN 0 | GSK3A 0 | HER2 = 0 | INSRR 0

CN1CCC(c2ccccc2CC(C)(C)Nc2nc(N3CCOCC3)nc(-n3c(S(C)(=O)=O)nc4ccccc43)n2)CC1 (10 µM)
inactive: EGFR 0 | EGFR_G719S 0 | EGFR_G719S_T790M 0 | EGFR_L718V 0 | EGFR_L858R 0 | EGFR_L861Q 0 | EGFR_T790M 0 | EPHA2 = 0 | ERBB3 = 0 | [1] 0 | ERN1 = 0 | FGFR1 = 0 | FGFR2 = 0 | FGFR3 = 0 | FGR 0 | FLT3 = 0 | FYN 0 | GSK3A 0 | HER2 = 0 | INSRR 0

C[C@H]1CNC(=O)c2cnn3ccc(nc23)N[C@H](C)c2cc(F)ccc2O1 [Repotrectinib] (2.5 µM)
inactive: EGFR 0 | EGFR_G719S 0 | EGFR_G719S_T790M 0 | EGFR_L718V 0 | EGFR_L858R 0 | EGFR_L861Q 0 | EGFR_T790M 0 | EPHA2 = 0 | ERBB3 = 0 | [1] 0 | ERN1 = 0 | FGFR1 = 0 | FGFR2 = 0 | FGFR3 = 0 | FGR 0 | FLT3 = 0 | FYN 0 | GSK3A 0 | HER2 = 0 | INSRR 0

CC(C)(O)c1cc(Nc2cc(Oc3cn(C4CC4)nc3C3CCOCC3)ccn2)ccn1 (10 µM)
inactive: EGFR 0 | EGFR_G719S 0 | EGFR_G719S_T790M 0 | EGFR_L718V 0 | EGFR_L858R 0 | EGFR_L861Q 0 | EGFR_T790M 0 | EPHA2 = 0 | ERBB3 = 0 | [1] 0 | ERN1 = 0 | FGFR1 = 0 | FGFR2 = 0 | FGFR3 = 0 | FGR 0 | FLT3 = 0 | FYN 0 | GSK3A 0 | HER2 = 0 | INSRR 0

CNS(=O)(=O)C[C@H]1CC[C@H](N(C)c2[nH]cnc3nccc2-3)CC1 [Oclacitinib (maleate)] (10 µM)
inactive: EGFR 0 | EGFR_G719S 0 | EGFR_G719S_T790M 0 | EGFR_L718V 0 | EGFR_L858R 0 | EGFR_L861Q 0 | EGFR_T790M 0 | EPHA2 = 0 | ERBB3 = 0 | [1] 0 | ERN1 = 0 | FGFR1 = 0 | FGFR2 = 0 | FGFR3 = 0 | FGR 0 | FLT3 = 0 | FYN 0 | GSK3A 0 | HER2 = 0 | INSRR 0
